In doi:10.1101/726935:
These are yes or no findings as the source states them, for the method shown. In cells and extracts the contact can be indirect. Some entries that bind do so weakly or less than the wild type.

Assays:
[1] = biological target: FLAG-VP35-WT (Ebola virus virion protein 35) (Ebola virus (EBOV)) (UniProt Q05127); assay: co-IP
[2] = biological target: HA-L_(1-505) (amino terminus of the Ebola virus RNA-dependent RNA polymerase L) (Ebola virus (EBOV)) (UniProt Q05318); assay: co-IP

Substance | binding [1] | binding [2]
HA-VP35-WT (Ebola virus virion protein 35) (from UniProt Q05127 1-340) | binds | 
FLAG-VP35-WT (Ebola virus virion protein 35) (from UniProt Q05127 1-340) |  | binds
